In article PMC13193366:
No constants are given. Whether binding was seen depends on the method and setting. For part of these data: Binding can be weak; no strength is given. For part of these data: Sequences can lack the tags named with a protein. For part of these data: In cells and extracts the contact can be indirect.

What was measured:
[1] = target: T1, RFP-ARR2 (35Spro::RFP-ARR2) (Arabidopsis thaliana) (UniProt Q9ZWJ9); experiment: FRET or BRET; FLIM-FRET: GFP fluorescence lifetime in nuclei of Nicotiana tabacum leaf epidermal cells co-expressing GFP- and mCherry/RFP-tagged proteins; measured within nuclear speckles (AtPWO1, SmPWOa) or in the nucleolus (SmPWOb)
T1 sequence: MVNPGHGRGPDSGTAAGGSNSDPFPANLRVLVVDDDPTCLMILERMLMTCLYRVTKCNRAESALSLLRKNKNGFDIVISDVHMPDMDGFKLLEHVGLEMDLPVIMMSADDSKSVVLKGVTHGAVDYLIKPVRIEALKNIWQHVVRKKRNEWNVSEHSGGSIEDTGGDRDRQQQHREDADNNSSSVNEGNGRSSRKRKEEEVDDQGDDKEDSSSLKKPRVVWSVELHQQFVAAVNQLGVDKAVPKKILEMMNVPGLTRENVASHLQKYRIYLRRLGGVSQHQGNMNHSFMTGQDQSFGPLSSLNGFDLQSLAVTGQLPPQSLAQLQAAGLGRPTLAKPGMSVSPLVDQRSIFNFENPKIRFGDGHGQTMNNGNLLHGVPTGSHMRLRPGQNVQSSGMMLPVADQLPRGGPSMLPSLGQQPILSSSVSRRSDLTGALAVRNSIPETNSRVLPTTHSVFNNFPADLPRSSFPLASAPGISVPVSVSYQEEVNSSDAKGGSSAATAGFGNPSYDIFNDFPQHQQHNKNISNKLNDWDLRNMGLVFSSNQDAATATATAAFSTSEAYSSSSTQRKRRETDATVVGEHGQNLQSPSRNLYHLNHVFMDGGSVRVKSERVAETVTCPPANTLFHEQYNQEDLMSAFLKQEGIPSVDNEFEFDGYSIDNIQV

[2] = target: T2, RFP-ARR1 (35Spro::RFP-ARR1; ARABIDOPSIS RESPONSE REGULATOR1) (Arabidopsis thaliana) (UniProt Q940D0); experiment: as above
T2 sequence: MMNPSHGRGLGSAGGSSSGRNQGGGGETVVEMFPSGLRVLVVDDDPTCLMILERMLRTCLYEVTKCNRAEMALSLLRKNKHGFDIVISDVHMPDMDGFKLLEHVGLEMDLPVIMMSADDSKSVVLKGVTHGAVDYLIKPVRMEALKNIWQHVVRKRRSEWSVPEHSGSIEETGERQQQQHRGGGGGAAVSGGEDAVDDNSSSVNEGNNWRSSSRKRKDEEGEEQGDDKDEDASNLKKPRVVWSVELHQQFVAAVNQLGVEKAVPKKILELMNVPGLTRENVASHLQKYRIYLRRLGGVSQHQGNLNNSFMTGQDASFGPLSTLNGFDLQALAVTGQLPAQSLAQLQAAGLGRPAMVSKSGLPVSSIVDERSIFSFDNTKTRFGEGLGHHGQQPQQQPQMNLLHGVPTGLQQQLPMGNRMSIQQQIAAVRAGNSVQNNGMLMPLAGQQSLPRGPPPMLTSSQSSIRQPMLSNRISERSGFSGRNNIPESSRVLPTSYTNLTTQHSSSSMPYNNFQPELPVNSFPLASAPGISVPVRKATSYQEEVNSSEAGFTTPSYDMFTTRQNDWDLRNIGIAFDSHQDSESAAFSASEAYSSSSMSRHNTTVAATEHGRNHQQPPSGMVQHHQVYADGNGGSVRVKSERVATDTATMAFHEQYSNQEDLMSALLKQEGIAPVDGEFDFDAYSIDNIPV

[3] = target: T3, PpCLF-mCherry (i35Spro::PpCLF-mCherry) (Physcomitrium patens) (UniProt C0STZ0); experiment: as above
T3 sequence: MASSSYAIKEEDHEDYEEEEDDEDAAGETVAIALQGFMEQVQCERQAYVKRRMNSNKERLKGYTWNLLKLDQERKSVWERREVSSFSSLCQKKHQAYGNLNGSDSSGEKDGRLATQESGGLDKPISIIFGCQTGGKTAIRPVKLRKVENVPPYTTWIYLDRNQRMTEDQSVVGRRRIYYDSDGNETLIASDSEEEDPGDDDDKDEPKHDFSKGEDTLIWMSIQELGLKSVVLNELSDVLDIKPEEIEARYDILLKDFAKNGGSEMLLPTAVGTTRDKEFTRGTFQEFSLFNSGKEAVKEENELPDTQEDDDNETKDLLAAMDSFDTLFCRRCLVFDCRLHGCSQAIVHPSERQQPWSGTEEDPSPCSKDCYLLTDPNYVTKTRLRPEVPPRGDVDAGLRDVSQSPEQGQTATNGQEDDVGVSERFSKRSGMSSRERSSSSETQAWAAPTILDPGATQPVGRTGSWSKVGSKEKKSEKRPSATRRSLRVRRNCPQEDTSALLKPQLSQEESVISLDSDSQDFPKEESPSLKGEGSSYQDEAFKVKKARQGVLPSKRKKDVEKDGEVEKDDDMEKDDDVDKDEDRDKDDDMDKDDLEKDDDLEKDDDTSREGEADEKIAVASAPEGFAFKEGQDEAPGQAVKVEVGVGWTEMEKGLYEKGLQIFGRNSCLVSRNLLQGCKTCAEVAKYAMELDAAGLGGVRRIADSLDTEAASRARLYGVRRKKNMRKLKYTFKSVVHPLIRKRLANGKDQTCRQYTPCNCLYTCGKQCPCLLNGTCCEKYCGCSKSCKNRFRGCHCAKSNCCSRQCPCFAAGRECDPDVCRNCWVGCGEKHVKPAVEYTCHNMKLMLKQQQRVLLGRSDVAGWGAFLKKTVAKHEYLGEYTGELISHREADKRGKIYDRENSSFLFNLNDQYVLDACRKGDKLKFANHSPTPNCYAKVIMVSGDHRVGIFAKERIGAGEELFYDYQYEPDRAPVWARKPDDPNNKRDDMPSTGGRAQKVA

[4] = target: T4, PpCLF (Physcomitrium patens CLF), yeast two-hybrid fusion (Physcomitrium patens) (UniProt C0STZ0); experiment: two-hybrid; S. cerevisiae AH109; growth on low stringency selective medium (SD -Trp -Leu +Ade -His; -LWH)
T4 sequence: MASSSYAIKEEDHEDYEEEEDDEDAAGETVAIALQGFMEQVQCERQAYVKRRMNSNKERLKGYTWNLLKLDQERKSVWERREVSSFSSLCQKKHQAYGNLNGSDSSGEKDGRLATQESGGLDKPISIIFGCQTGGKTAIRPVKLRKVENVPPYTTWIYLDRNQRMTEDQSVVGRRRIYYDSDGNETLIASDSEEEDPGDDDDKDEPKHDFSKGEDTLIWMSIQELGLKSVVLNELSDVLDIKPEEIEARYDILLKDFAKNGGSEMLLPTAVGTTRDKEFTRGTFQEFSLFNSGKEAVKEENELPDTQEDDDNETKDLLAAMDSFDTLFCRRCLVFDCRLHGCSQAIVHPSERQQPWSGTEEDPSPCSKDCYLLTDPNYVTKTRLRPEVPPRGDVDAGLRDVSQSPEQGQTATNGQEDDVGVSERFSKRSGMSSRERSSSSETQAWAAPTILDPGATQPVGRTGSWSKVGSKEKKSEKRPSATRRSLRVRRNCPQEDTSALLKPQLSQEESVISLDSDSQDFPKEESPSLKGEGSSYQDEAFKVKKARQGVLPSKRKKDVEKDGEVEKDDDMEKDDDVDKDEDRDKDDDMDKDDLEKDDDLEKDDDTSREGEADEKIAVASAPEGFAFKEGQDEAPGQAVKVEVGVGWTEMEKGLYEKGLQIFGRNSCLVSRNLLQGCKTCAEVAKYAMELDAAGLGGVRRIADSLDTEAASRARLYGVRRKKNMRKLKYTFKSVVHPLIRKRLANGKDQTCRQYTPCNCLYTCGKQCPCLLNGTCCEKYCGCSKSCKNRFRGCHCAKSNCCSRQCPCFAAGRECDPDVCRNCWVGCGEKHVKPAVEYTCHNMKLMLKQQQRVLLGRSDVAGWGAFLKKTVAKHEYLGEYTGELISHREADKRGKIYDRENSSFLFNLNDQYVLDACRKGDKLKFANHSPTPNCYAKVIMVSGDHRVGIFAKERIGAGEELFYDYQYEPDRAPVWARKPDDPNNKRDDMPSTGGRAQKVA

[5] = target: T4, PpCLF (Physcomitrium patens CLF), yeast two-hybrid fusion (Physcomitrium patens); experiment: two-hybrid; S. cerevisiae AH109, Gal4-AD and Gal4-BD constructs co-transformed; growth on high stringency selective medium (SD -Leu -Trp -Ade -His; -LWAH), 30°C
[6] = target: AtSWNΔSET (SWINGER with the SET domain deleted), yeast two-hybrid fusion (pGBKT7) (Arabidopsis thaliana); experiment: as above
[7] = target: AtCLFΔSET (CURLY LEAF with the SET domain deleted), yeast two-hybrid fusion (pGBKT7) (Arabidopsis thaliana); experiment: as above
[8] = target: SmCLF (Selaginella moellendorffii CLF), yeast two-hybrid fusion (Selaginella moellendorffii); experiment: as above
[9] = target: AtSWNΔSET (SWINGER with the SET domain deleted), yeast two-hybrid fusion (pGBKT7) (Arabidopsis thaliana); experiment: two-hybrid; yeast two-hybrid of AtPWO2 (Fig. S12C); selection medium not told for this experiment
[10] = target: AtCLFΔSET (CURLY LEAF with the SET domain deleted), yeast two-hybrid fusion (pGBKT7) (Arabidopsis thaliana); experiment: as above
[11] = target: SmCLF (Selaginella moellendorffii CLF), yeast two-hybrid fusion (Selaginella moellendorffii); experiment: as above

GFP-SmPWOa (i35Spro::GFP-SmPWOa) (Selaginella moellendorffii)
binding [1]: no binding
binding [2]: no binding
binding [3]: binds

SmPWOb (Selaginella moellendorffii PWO ortholog b), yeast two-hybrid fusion
binding [4]: binds weakly

GFP-SmPWOb (i35Spro::GFP-SmPWOb) (Selaginella moellendorffii)
binding [1]: no binding
binding [2]: no binding
binding [3]: no binding

SmPWOa (Selaginella moellendorffii PWO ortholog a), yeast two-hybrid fusion
binding [5]: binds

SmPWOa-ΔC-motif (Δ594–612 aa), yeast two-hybrid fusion (Selaginella moellendorffii)
binding [5]: binds

B1: AtPWO1 (PWWP-DOMAIN INTERACTOR OF POLYCOMBS 1), yeast two-hybrid fusion (protein, UniProt Q9M9N3 1-769)
chain: MASPGSGAVDWTVGSIVWVRRRNGSWWPGRILGQEDLDSTHITSPRSGTPVKLLGREDASVDWYNLEKSKRVKPFRCGDFDECIERVESSQAMIIKKREKYARREDAILHALELEKEMLKREGKLVPEKARDDSLDATKERMAIVRVQDTSNGTRESTDYLRTNHVGDVMHLLRDKEEDQPSCEDEAVPRMRGLQDFGLRTASSKRKISCSNGPDTSFKYLARSNSSASSSGDHSMERPIYTLGKEKTKSRAEAKRTKYMFTPSESNDVSDLHENLLSHRDAMHSSFAGGDTRYSDYDPPNFLEDMESDYSESETDSSDMEEDTDDDIPLLSGAGRHSERRNTFSRHTSGEDESTSSEEDHYESSISGDSSYLYSQNPNNEASTVSNWQHKGKRNFRTLPRRSARKRKLHRNRLEDGRYCEYKRRAFGQKPMGYGLDFNGINDMSDGTDDTDPNERQFGDRMIVPGDDYQLSNVVASRCKNIYSHDMLDWDDDPWEGRIGMKKRGEEKLEGLGQEFDVSERHFGRKTYSSLMDVDLEVRGSYQKGPVPIVSLMSKLNGRAIIGHPVEVEVLADGSSESYIQTIDYFGNETTYQDKTFLLPSAWKTARRSNSRVPRLQPFSSSVEADDDATYDYSLADQGRKPLVKKLGLGHFSNDDNSVRRNSSLRIPRPPAERKQQHQQQQKKLLKNTNATASQKTRALSSFSGEQGHNGMKASRDRTHELSNRRVLPGPPTVACIPVKLVYSRLLEKINRPPSKPTAKAFNERRRVQ
binding [6]: binds
binding [7]: binds weakly
binding [8]: no binding

B2: AtPWO2, yeast two-hybrid fusion (protein, UniProt P59278 1-597)
chain: MESNDDRNLEAINASVGRLVWVRRRNGSWWPGQTLVHDQVPDNSLVGPKVGTPIKLLGRDDVSVDWYILENSKTVKAFRCGEYDTCIEKAKASSSKKRSGKCTLREDAINNALKIENEHLAKEDDNLCNLSGEEDSKRCLSGKEDEDSGSSDAEETEDDELASAPEQLQSSISSQEMNNVGASKVQSKRRRTPNDSEDDGTEGVKRMRGLEDIGKEQAGGIVEHKQDLDLICAVGLSDSVSNGNTIANGNKVCSPSSLKRNVSECSKRKNRRRQLTKVLESTAMVSVPVTCDQGVSLDCQGIYDSKVSGMESVESMKSVSVVINNNSDSTGVSCEDAYENVVGASHNNKAKDSEISSISVSAEDDSSDRLFDVPLTGEENHSEGFPAACRISSPRKALVTDLTRRCGRNSHNVFVKNEASNGSACTSPPASEPVNCILSGIEKNTSKWQLKGKRNSRQMSKKQEERRNVYGEEANNNSSTPHSTLYEVKIEVKASYTKPRVPLVSRMSELSGKAIVGHPLSVEILEEDYSNGMVMPPVVAKAKSLPKKNGKKQTTEKAKETVVACIPLKVVFSRINEVLKGSARQTQHRALPSAAKT
binding [9]: no binding
binding [10]: no binding
binding [11]: no binding
